Read-outs that look alike come from different tables or passages of the source.

Consider `O=[N+]([O-])O` [nitrate], for which the “water injection (injectivity) pressure” value by setting is: (nitrate reduced to 23 mg/L) 930 psig; (nitrate treatment of 45 mg/L) 960 psig. The injectivity pressure (nitrate reduced to 23 mg/l) is given as 930 psi and the “injectivity pressure” value (nitrate treatment of 45 mg/L) is reported as 960 psi.

The values are drawn from US11732560B1, “Nitrate treatment for injectivity improvement” (SAUDI ARABIAN OIL COMPANY, priority 2022, dated 2023).
